From patent US20210400977A1, “META-DIAMIDE COMPOUNDS FOR CONTROLLING INVERTEBRATE PESTS” (FMC Corporation, priority 2018, published 2021)
Some of these results come from one statement about several compounds together.

system: Western Flower Thrips (Frankliniellla occidentalis (Pergande)); test: Test H: control of Western Flower Thrips through contact and/or systemic means; type: in vivo; settings: sprayed at 250 ppm, assessed after 6 days, value is the plant damage limit

Structure (SMILES) | control efficacy (30% or less plant damage and/or 100% mortality)
O=C(NCc1cc(NC(=O)C2C(c3ccc(F)c(F)c3)C2(Cl)Cl)ccc1F)C1CC1 (centres unmarked) [Compound 91] | ≤ 30%
CCC(=O)NCc1cc(NC(=O)C2C(c3ccc(F)c(Cl)c3)C2(Cl)Cl)ccc1F (centres unmarked) [Compound 25] | ≤ 30%
O=C(Nc1ccc(Cl)c(CNC(=O)C(F)(F)F)c1)C1C(c2cccc(OC(F)(F)F)c2)C1(Cl)Cl (centres unmarked) [Compound 178] | ≤ 30%
O=C(NCc1cc(NC(=O)C2C(c3ccc(Cl)s3)C2(F)F)ccc1Cl)C1CC1 (centres unmarked) [Compound 237] | ≤ 30%
CC(=O)NCc1cc(NC(=O)C2C(c3ccccc3)C2(Cl)Cl)ccc1Cl (centres unmarked) [Compound 12] | ≤ 30%
COC(=O)CC(=O)NCc1cc(NC(=O)C2C(c3cc(F)c(F)c(F)c3)C2(Cl)Cl)ccc1Cl (centres unmarked) [Compound 111] | ≤ 30%
O=C(NCc1cc(NC(=O)C2C(c3cc(Cl)cs3)C2(F)F)ccc1Cl)C1CC1 (centres unmarked) [Compound 238] | ≤ 30%
O=C(Cc1ncccn1)NCc1cc(NC(=O)C2C(c3cc(F)c(F)c(F)c3)C2(Cl)Cl)ccc1Cl (centres unmarked) [Compound 182] | ≤ 30%
O=C(Cc1ncccn1)NCc1cc(NC(=O)C2C(c3cc(F)c(Cl)c(F)c3)C2(Cl)Cl)ccc1Cl (centres unmarked) [Compound 184] | ≤ 30%
O=C(Cc1ncccn1)NCc1cc(NC(=O)C2C(c3ccc(Cl)c(Cl)c3)C2(Cl)Cl)ccc1Cl (centres unmarked) [Compound 183] | ≤ 30%

system: diamondback moth (Plutella xylostella (L.)); test: Test A: control of diamondback moth, foliar spray on mustard plant; type: in vivo; settings: sprayed at 50 ppm, assessed after 6 days, value is the feeding damage limit

Structure (SMILES) | control efficacy (40% or less feeding damage and/or 100% mortality)
O=C(NCc1cc(NC(=O)C2C(c3ccc(F)c(F)c3)C2(Cl)Cl)ccc1F)C1CC1 (centres unmarked) [Compound 91] | ≤ 40%
CCC(=O)NCc1cc(NC(=O)C2C(c3ccc(F)c(Cl)c3)C2(Cl)Cl)ccc1F (centres unmarked) [Compound 25] | ≤ 40%
O=C(Nc1ccc(Cl)c(CNC(=O)C(F)(F)F)c1)C1C(c2cccc(OC(F)(F)F)c2)C1(Cl)Cl (centres unmarked) [Compound 178] | ≤ 40%
O=C(NCc1cc(NC(=O)C2C(c3ccc(Cl)s3)C2(F)F)ccc1Cl)C1CC1 (centres unmarked) [Compound 237] | ≤ 40%
CC(=O)NCc1cc(NC(=O)C2C(c3ccccc3)C2(Cl)Cl)ccc1Cl (centres unmarked) [Compound 12] | ≤ 40%
COC(=O)CC(=O)NCc1cc(NC(=O)C2C(c3cc(F)c(F)c(F)c3)C2(Cl)Cl)ccc1Cl (centres unmarked) [Compound 111] | ≤ 40%
O=C(NCc1cc(NC(=O)C2C(c3cc(Cl)cs3)C2(F)F)ccc1Cl)C1CC1 (centres unmarked) [Compound 238] | ≤ 40%
O=C(Cc1ncccn1)NCc1cc(NC(=O)C2C(c3cc(F)c(F)c(F)c3)C2(Cl)Cl)ccc1Cl (centres unmarked) [Compound 182] | ≤ 40%
O=C(Cc1ncccn1)NCc1cc(NC(=O)C2C(c3cc(F)c(Cl)c(F)c3)C2(Cl)Cl)ccc1Cl (centres unmarked) [Compound 184] | ≤ 40%
CC(Cl)C(=O)NCc1cc(NC(=O)C2C(c3ccc(F)c(Cl)c3)C2(Cl)Cl)ccc1F (centres unmarked) [Compound 188] | ≤ 40%
O=C(Nc1ccc(Cl)c(CNC(=O)C(F)(F)F)c1)C1C(c2cc(F)cc(Cl)c2)C1(Cl)Cl (centres unmarked) [Compound 176] | ≤ 40%
O=C(NCc1cc(NC(=O)C2C(c3ccc(C(F)(F)F)c(F)c3)C2(Cl)Cl)ccc1Cl)C1CC1 (centres unmarked) [Compound 143] | ≤ 40%
CCC(=O)NCc1cc(NC(=O)C2C(c3cc(F)cc(Cl)c3)C2(Cl)Cl)ccc1Cl (centres unmarked) [Compound 97] | ≤ 40%
CC(C)C(=O)NCc1cc(NC(=O)C2C(c3ccc(Cl)c(Cl)c3)C2(Cl)Cl)ccc1F (centres unmarked) [Compound 44] | ≤ 40%
O=C(Cc1ncccn1)NCc1cc(NC(=O)C2C(c3ccc(Cl)c(Cl)c3)C2(Cl)Cl)ccc1Cl (centres unmarked) [Compound 183] | ≤ 40%

same assay, conditions: sprayed at 250 ppm, assessed after 6 days, value is the feeding damage limit

Structure (SMILES) | control efficacy (40% or less feeding damage and/or 100% mortality)
CCC(=O)NCc1cc(NC(=O)C2C(c3ccc(F)c(Cl)c3)C2(Cl)Cl)ccc1F (centres unmarked) [Compound 25] | ≤ 40%
O=C(NCc1cc(NC(=O)C2C(c3ccc(Cl)s3)C2(F)F)ccc1Cl)C1CC1 (centres unmarked) [Compound 237] | ≤ 40%
CC(=O)NCc1cc(NC(=O)C2C(c3ccccc3)C2(Cl)Cl)ccc1Cl (centres unmarked) [Compound 12] | ≤ 40%
O=C(NCc1cc(NC(=O)C2C(c3cc(Cl)cs3)C2(F)F)ccc1Cl)C1CC1 (centres unmarked) [Compound 238] | ≤ 40%
CC(Cl)C(=O)NCc1cc(NC(=O)C2C(c3ccc(F)c(Cl)c3)C2(Cl)Cl)ccc1F (centres unmarked) [Compound 188] | ≤ 40%
CC(C)C(=O)NCc1cc(NC(=O)C2C(c3ccc(Cl)c(Cl)c3)C2(Cl)Cl)ccc1F (centres unmarked) [Compound 44] | ≤ 40%
CC(=O)NCc1cc(NC(=O)C2C(c3cc(Cl)cc(Cl)c3)C2(Cl)Cl)ccc1C (centres unmarked) [Compound 124] | ≤ 40%

system: fall armyworm (Spodoptera frugiperda (J. E. Smith)); test: Test B: control of fall armyworm, foliar spray on corn (maize) plant; type: in vivo; settings: sprayed at 50 ppm, assessed after 6 days, value is the feeding damage limit

Structure (SMILES) | control efficacy (40% or less feeding damage and/or 100% mortality)
O=C(NCc1cc(NC(=O)C2C(c3ccc(F)c(F)c3)C2(Cl)Cl)ccc1F)C1CC1 (centres unmarked) [Compound 91] | ≤ 40%
CCC(=O)NCc1cc(NC(=O)C2C(c3ccc(F)c(Cl)c3)C2(Cl)Cl)ccc1F (centres unmarked) [Compound 25] | ≤ 40%
O=C(Nc1ccc(Cl)c(CNC(=O)C(F)(F)F)c1)C1C(c2cccc(OC(F)(F)F)c2)C1(Cl)Cl (centres unmarked) [Compound 178] | ≤ 40%
CC(Cl)C(=O)NCc1cc(NC(=O)C2C(c3ccc(F)c(Cl)c3)C2(Cl)Cl)ccc1F (centres unmarked) [Compound 188] | ≤ 40%
O=C(Nc1ccc(Cl)c(CNC(=O)C(F)(F)F)c1)C1C(c2cc(F)cc(Cl)c2)C1(Cl)Cl (centres unmarked) [Compound 176] | ≤ 40%
O=C(NCc1cc(NC(=O)C2C(c3ccc(C(F)(F)F)c(F)c3)C2(Cl)Cl)ccc1Cl)C1CC1 (centres unmarked) [Compound 143] | ≤ 40%
CCC(=O)NCc1cc(NC(=O)C2C(c3cc(F)cc(Cl)c3)C2(Cl)Cl)ccc1Cl (centres unmarked) [Compound 97] | ≤ 40%
CC(C)C(=O)NCc1cc(NC(=O)C2C(c3ccc(Cl)c(Cl)c3)C2(Cl)Cl)ccc1F (centres unmarked) [Compound 44] | ≤ 40%

same assay, conditions: sprayed at 250 ppm, assessed after 6 days, value is the feeding damage limit

Structure (SMILES) | control efficacy (40% or less feeding damage and/or 100% mortality)
CCC(=O)NCc1cc(NC(=O)C2C(c3ccc(F)c(Cl)c3)C2(Cl)Cl)ccc1F (centres unmarked) [Compound 25] | ≤ 40%
CC(Cl)C(=O)NCc1cc(NC(=O)C2C(c3ccc(F)c(Cl)c3)C2(Cl)Cl)ccc1F (centres unmarked) [Compound 188] | ≤ 40%
CC(C)C(=O)NCc1cc(NC(=O)C2C(c3ccc(Cl)c(Cl)c3)C2(Cl)Cl)ccc1F (centres unmarked) [Compound 44] | ≤ 40%
CC(=O)NCc1cc(NC(=O)C2C(c3cc(Cl)cc(Cl)c3)C2(Cl)Cl)ccc1C (centres unmarked) [Compound 124] | ≤ 40%
